Laboratory results taken from paper PMC6843132.

Assays:
[1] = system: AtNF-YA6 + AtNF-YB2 + AtNF-YC3; assay: EMSA; conditions: reduced affinity vs CAB2; 12 mM Tris-HCl pH 8.0, 50 mM NaCl, 50 mM KCl, 5 mM MgCl2, 0.5 mM EDTA, 12% glycerol, 0.2 mg/mL BSA, 2.5 mM DTT, 100 ng poly(dA:dT), 20 nM Cy5 probe, 30 C 30 min; recombinant protein; protein details: 6His,6His removed by thrombin; label: Cy5 5'
[2] = system: AtNF-YA6 + AtNF-YB2 + AtNF-YC3; assay: competition EMSA; conditions: competes, less than WT CAB2; 12 mM Tris-HCl pH 8.0, 50 mM NaCl, 50 mM KCl, 5 mM MgCl2, 0.5 mM EDTA, 12% glycerol, 0.2 mg/mL BSA, 2.5 mM DTT, 100 ng poly(dA:dT), 20 nM Cy5 probe, 30 C 30 min; recombinant protein; protein details: 6His,6His removed by thrombin

Row | Sequence | binding result [1] | binding result [2]
1 | GCACTCATCCAATCCTTTATGGAATCTTCTT (double strand) [FT -5.3 kb CCAAT 31 bp probe] | binds more weakly | 
2 | GCACTCATCCAATCCTTTATGGAATCTTCTT (double strand) [FT CCAAT competitor 31 bp] |  | binds more weakly

Weaker means in comparison with the reference protein, sequence or condition of that experiment.
